Data reported in article PMC10654028.
No constants are given. Whether binding was seen depends on the method and setting. In cells and extracts the contact can be indirect. Some results given as binding are weak or reduced against the parent protein; the word gives no strength. For some assays here: Where a sequence is shown, tags or fusion partners need not be part of it.

Amino acid sequences for entries named in this document (tags omitted).
UniProt Q86W56: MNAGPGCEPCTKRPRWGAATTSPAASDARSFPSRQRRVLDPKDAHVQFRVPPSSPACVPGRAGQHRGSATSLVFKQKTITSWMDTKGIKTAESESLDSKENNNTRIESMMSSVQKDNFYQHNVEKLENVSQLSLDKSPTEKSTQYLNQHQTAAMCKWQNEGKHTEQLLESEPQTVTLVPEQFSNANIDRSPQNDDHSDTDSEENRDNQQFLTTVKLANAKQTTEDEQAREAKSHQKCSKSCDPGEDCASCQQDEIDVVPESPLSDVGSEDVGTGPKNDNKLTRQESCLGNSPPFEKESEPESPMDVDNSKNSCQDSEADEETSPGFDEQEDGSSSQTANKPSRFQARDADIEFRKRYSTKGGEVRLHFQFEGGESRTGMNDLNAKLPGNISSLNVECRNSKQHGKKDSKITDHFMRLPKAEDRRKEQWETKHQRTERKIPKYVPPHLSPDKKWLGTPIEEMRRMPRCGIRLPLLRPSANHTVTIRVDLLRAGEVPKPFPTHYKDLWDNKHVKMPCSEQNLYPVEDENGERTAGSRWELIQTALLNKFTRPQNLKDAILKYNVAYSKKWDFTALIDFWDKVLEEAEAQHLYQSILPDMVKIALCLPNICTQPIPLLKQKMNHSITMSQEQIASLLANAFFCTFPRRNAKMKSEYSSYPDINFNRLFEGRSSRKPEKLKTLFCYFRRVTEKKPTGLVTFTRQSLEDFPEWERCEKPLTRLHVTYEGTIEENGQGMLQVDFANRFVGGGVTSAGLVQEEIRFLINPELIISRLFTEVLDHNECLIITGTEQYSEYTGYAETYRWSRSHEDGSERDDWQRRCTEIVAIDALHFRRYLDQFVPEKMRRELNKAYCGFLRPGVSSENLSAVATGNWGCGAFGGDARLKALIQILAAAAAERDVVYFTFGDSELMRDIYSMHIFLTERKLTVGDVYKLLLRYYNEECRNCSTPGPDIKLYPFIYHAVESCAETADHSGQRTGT

How the values were obtained:
[1] = biological target: ADP-ribose glycohydrolase (PARG), endogenous (human (endogenous in 293T)) (UniProt Q86W56); assay: co-IP; 293T cell lysates immunoprecipitated with anti-PARG antibodies, immunoblotted with anti-OGT and anti-PARG antibodies; endogenous proteins
Flag-PARG (human) = Flag-PARG (human) (UniProt Q86W56); assay: co-IP; cells transfected with HA-OGT and Flag-PARG plasmids; lysates immunoprecipitated with anti-HA or anti-Flag antibodies and immunoblotted

binding [1] | binding (Flag-PARG (human)) | Binder
binds |  | O-GlcNAc transferase (OGT), endogenous (enzyme, UniProt O15294 1-1046) MASSVGNVADSTEPTKRMLSFQGLAELAHREYQAGDFEAAERHCMQLWRQEPDNTGVLLLLSSIHFQCRRLDRSAHFSTLAIKQNPLLAEAYSNLGNVYKERGQLQEAIEHYRHALRLKPDFIDGYINLAAALVAAGDMEGAVQAYVSALQYNPDLYCVRSDLGNLLKALGRLEEAKACYLKAIETQPNFAVAWSNLGCVFNAQGEIWLAIHHFEKAVTLDPNFLDAYINLGNVLKEARIFDRAVAAYLRALSLSPNHAVVHGNLACVYYEQGLIDLAIDTYRRAIELQPHFPDAYCNLANALKEKGSVAEAEDCYNTALRLCPTHADSLNNLANIKREQGNIEEAVRLYRKALEVFPEFAAAHSNLASVLQQQGKLQEALMHYKEAIRISPTFADAYSNMGNTLKEMQDVQGALQCYTRAIQINPAFADAHSNLASIHKDSGNIPEAIASYRTALKLKPDFPDAYCNLAHCLQIVCDWTDYDERMKKLVSIVADQLEKNRLPSVHPHHSMLYPLSHGFRKAIAERHGNLCLDKINVLHKPPYEHPKDLKLSDGRLRVGYVSSDFGNHPTSHLMQSIPGMHNPDKFEVFCYALSPDDGTNFRVKVMAEANHFIDLSQIPCNGKAADRIHQDGIHILVNMNGYTKGARNELFALRPAPIQAMWLGYPGTSGALFMDYIITDQETSPAEVAEQYSEKLAYMPHTFFIGDHANMFPHLKKKAVIDFKSNGHIYDNRIVLNGIDLKAFLDSLPDVKIVKMKCPDGGDNADSSNTALNMPVIPMNTIAEAVIEMINRGQIQITINGFSISNGLATTQINNKAATGEEVPRTIIVTTRSQYGLPEDAIVYCNFNQLYKIDPSTLQMWANILKRVPNSVLWLLRFPAVGEPNIQQYAQNMGLPQNRIIFSPVAPKEEHVRRGQLADVCLDTPLCNGHTTGMDVLWAGTPMVTMPGETLASRVAASQLTCLGCLELIAKNRQEYEDIAVKLGTDLEYLKKVRGKVWKQRISSPLFNTKQYTMELERLYLQMWEHYAAGNKPDHMIKPVEVTESA
 | binds | HA-OGT (enzyme, UniProt O15294 1-1046) MASSVGNVADSTEPTKRMLSFQGLAELAHREYQAGDFEAAERHCMQLWRQEPDNTGVLLLLSSIHFQCRRLDRSAHFSTLAIKQNPLLAEAYSNLGNVYKERGQLQEAIEHYRHALRLKPDFIDGYINLAAALVAAGDMEGAVQAYVSALQYNPDLYCVRSDLGNLLKALGRLEEAKACYLKAIETQPNFAVAWSNLGCVFNAQGEIWLAIHHFEKAVTLDPNFLDAYINLGNVLKEARIFDRAVAAYLRALSLSPNHAVVHGNLACVYYEQGLIDLAIDTYRRAIELQPHFPDAYCNLANALKEKGSVAEAEDCYNTALRLCPTHADSLNNLANIKREQGNIEEAVRLYRKALEVFPEFAAAHSNLASVLQQQGKLQEALMHYKEAIRISPTFADAYSNMGNTLKEMQDVQGALQCYTRAIQINPAFADAHSNLASIHKDSGNIPEAIASYRTALKLKPDFPDAYCNLAHCLQIVCDWTDYDERMKKLVSIVADQLEKNRLPSVHPHHSMLYPLSHGFRKAIAERHGNLCLDKINVLHKPPYEHPKDLKLSDGRLRVGYVSSDFGNHPTSHLMQSIPGMHNPDKFEVFCYALSPDDGTNFRVKVMAEANHFIDLSQIPCNGKAADRIHQDGIHILVNMNGYTKGARNELFALRPAPIQAMWLGYPGTSGALFMDYIITDQETSPAEVAEQYSEKLAYMPHTFFIGDHANMFPHLKKKAVIDFKSNGHIYDNRIVLNGIDLKAFLDSLPDVKIVKMKCPDGGDNADSSNTALNMPVIPMNTIAEAVIEMINRGQIQITINGFSISNGLATTQINNKAATGEEVPRTIIVTTRSQYGLPEDAIVYCNFNQLYKIDPSTLQMWANILKRVPNSVLWLLRFPAVGEPNIQQYAQNMGLPQNRIIFSPVAPKEEHVRRGQLADVCLDTPLCNGHTTGMDVLWAGTPMVTMPGETLASRVAASQLTCLGCLELIAKNRQEYEDIAVKLGTDLEYLKKVRGKVWKQRISSPLFNTKQYTMELERLYLQMWEHYAAGNKPDHMIKPVEVTESA
